# Laboratory results reported in PubChem BioAssay AID1347075 (National Center for Advancing Translational Sciences (NCATS), 2019).
# The whole screen tested about 400,000 compounds, of which about 5,500 (1.4%) were called active. This list was built around the results that the source calls inconclusive (neither active nor inactive); the mix of calls is not that of the screen. Calls come from the whole dose curve; as a rule, active = well fitted cell-killing curve with a large enough effect; inconclusive = small, poorly fitted or top-dose-only effect, or effect the other way; inactive = flat fitted curve, though single readings scatter. Potencies of inconclusive entries are doubtful fits and often do not repeat.
# Test: qHTS assay for MDR1-selective chemotherapeutics: Primary screen using the parental adenocarcinoma cell KB-3-1; note: nearly all actives have a fitted effect of over 60% in size
# Details: KB-3-1 viability, CellTiter-Glo ATP luminescence, 72 h; activity change, negative = cytotoxic: at 46.1 µM (top of the series)
# How it was run: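 Cells are dispensed, compounds pinned in, plates held at 37 °C for 72 h, then CellTiter-Glo is added and luminescence read after 10 minutes. Cell line: parental KB-3-1 in phenol-red-free DMEM, 10% FBS.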
# % is set by controls: 0 for no effect and ±100 for the full control effect; potency is the fitted concentration of half-maximal effect.
Structure (SMILES),Potency,"activity change, negative = cytotoxic"
O=C(CCCc1ccccc1)NCCS(=O)(=O)N1CCN(c2ccccc2F)CC1,inactive,
NC(N)=NCCCS(=O)(=O)Nc1ccc(Nc2c3ccccc3nc3cc([N+](=O)[O-])ccc23)cc1,active: 14.6 µM,
C(=C\c1ccc2ccccc2n1)/c1ccccc1,"inconclusive: 23.1 µM [cytotoxic, single point]",
COc1cccc(/C=N/NC(=O)c2ccc(N3CCCC3=O)cc2)c1,active: 16.4 µM,
Cc1cccc(Cc2c(C)nc3c(-c4ccccc4)c(C)[nH]n3c2=O)c1,active: 10.3 µM,
CCOc1ccc(-c2nn(-c3ccccc3)cc2/C=C2\SC(N)=NC2=O)cc1C,"inconclusive: 18.4 µM [cytotoxic, single point]",
O=C(NNC(=S)NC1CCCCC1)c1ccccc1Br,inactive,
O=c1cc(CN2CCN(S(=O)(=O)/C=C/c3ccccc3)CC2)c2ccc(O)cc2o1,"inconclusive: 16.4 µM [cytotoxic, single point]",
Cc1ccc(C(=O)NCCNc2nc3cc(C)c(C)cc3cc2C)cc1,"inconclusive: 16.4 µM [cytotoxic, partial curve, poor fit]",
CCN(CC)c1ccc(/C=C/C2=C3C=CC=CC3NC=C2)cc1 (centres undefined),,inconclusive: 0%
COc1cc(OC)c(OC)cc1CN1CCCC(C(=O)c2ccccc2SC)C1 (centres undefined),inactive,
O=S(=O)(c1cc(F)ccc1F)N1CCN(C2CCCCC2)CC1,"inconclusive: 20.6 µM [rising, single point]",
CCC1Cc2[nH]c(=S)[nH]c(=O)c2C(c2ccc(F)cc2)O1 (centres undefined),inactive,
Cc1ccc(C(C)C)c(OCC(O)CN2CCc3ccccc3C2)c1 (centres undefined),"inconclusive: 20.6 µM [cytotoxic, single point]",
Nc1nc(CN2CCN(c3ccccn3)CC2)nc(Nc2ccc(Cl)cc2)n1,"inconclusive: 0.92 µM [rising, full curve]",
Cc1ccc(-c2nn(-c3ccccc3)cc2NC(=O)CCl)cc1,active: 8.2 µM,
CCOC(=O)c1cnc(SCc2cccc3ccccc23)nc1N,"inconclusive: 18.4 µM [cytotoxic, single point]",
COc1cc(/C=C/C(=O)OCC(=O)NCCC2=CCCCC2)cc(OC)c1OC,"inconclusive: 20.6 µM [rising, partial curve, poor fit]",
CN1C2CCC1/C(=C\c1ccccc1F)C(=O)/C2=C/c1ccccc1F,"inconclusive: 29.1 µM [cytotoxic, single point]",
COCCNC(=S)N(CCc1c(C)[nH]c2ccc(Cl)cc12)Cc1cccs1,"inconclusive: 18.4 µM [cytotoxic, single point]",
CC1(Cc2ccc(Cl)c(Cl)c2)C(=O)Nc2ccc(S(=O)(=O)NC3CCCCC3)cc21 (centres undefined),"inconclusive: 25.9 µM [cytotoxic, single point]",
Cc1ccc(C)c(N2CCN(CCCNC(=O)Cn3cccc3C(=O)c3ccccc3)CC2)c1,"inconclusive: 29.1 µM [cytotoxic, single point]",
O=[N+]([O-])c1cccc(/C=N/Nc2cc(Cl)nc(-c3ccccc3)n2)c1,"inconclusive: 29.1 µM [cytotoxic, single point]",
COc1ccc(CNC(=O)COc2cc(=O)n(C)c3ccccc23)cc1,inactive,
CC(C)c1nc2ccc(C(=O)Nc3ccccc3F)cc2o1,"inconclusive: 29.1 µM [cytotoxic, single point]",

Structure (SMILES),Potency,"activity change, negative = cytotoxic"
COc1cc(C2C(C#N)=C(N)Oc3cc(N)ccc32)cc(OC)c1OC (centres undefined),"inconclusive: 0.517 µM [cytotoxic, full curve, poor fit]",
O=C(NCCN1CCC(n2c(=O)[nH]c3ccccc32)CC1)c1cccc(F)c1,,inconclusive: 4.56%
Cc1noc(C)c1CSCC(=O)OCC(=O)NC1CCCCC1,,inconclusive: -1.25%
Cc1coc2c1C(=O)C(=O)c1c-2ccc2c(C)cccc12,active: 9.2 µM,
CCN1C(=O)/C(=C\c2cn(CCC#N)nc2-c2ccc(F)cc2)SC1=S,inactive,
COc1ccc2nc(Nc3nc(-c4cc5ccccc5oc4=O)cs3)sc2c1,"inconclusive: 16.4 µM [cytotoxic, single point]",
CC1Cc2nc(SCC(=O)N3CCOCC3)n(-c3ccccc3)c(=O)c2S1 (centres undefined),inactive,
Cc1cc2nc(-c3nnnn3C3CCCCC3)c(=O)[nH]c2cc1C,inactive,
Cn1nnnc1SCC(=O)c1ccc(Br)s1,inactive,
Nc1nc(=S)[nH]c2c1C1(CCCC1)Cc1ccccc1-2,"inconclusive: 23.1 µM [cytotoxic, single point]",
O=C(Nc1ccc(Cl)cc1)C1CCC(=O)N1Cc1ccccc1Cl (centres undefined),inactive,
Cc1cc(C(=O)NCC(C)(C)N2CCOCC2)c(C)o1,inactive,
COc1cc(OC)c(OC)cc1/C=C/c1ccc2ccccc2[n+]1C,active: 13 µM,
Cc1ccc(NC(=O)Cc2coc3ccc(C(C)C)cc23)cc1Cl,"inconclusive: 29.1 µM [cytotoxic, single point]",
O=C(CN1c2cccc3cccc(c23)S1(=O)=O)Nc1ccccc1Br,inactive,
CC1CCN(c2ccc(NC(=O)Cn3c(=O)oc4ccccc43)cc2)CC1,inactive,
Cc1ccc(C(C(=O)NC2CCCCC2)N(Cc2cccnc2)C(=O)c2csnn2)cc1 (centres undefined),inactive,
CCOC(=O)c1c(NC(=O)c2ccc(OC)cc2)sc2c1CCCCC2,inactive,
CCOC1CCCc2oc(-c3ccc(N(C)C)cc3)c(C(=O)OC)c21 (centres undefined),"inconclusive: 20.6 µM [cytotoxic, single point]",
CCOC(=O)c1ccc(NC(=S)NC(=O)c2nn(CC)cc2Br)cc1,"inconclusive: 20.6 µM [cytotoxic, single point]",
CCNc1c(NS(=O)(=O)c2ccc([N+](=O)[O-])cc2)c(=O)oc2ccccc12,inactive,
Cc1ccc(OCCCCNC2CCCC(C)C2C)c(C)c1 (centres undefined),active: 23.1 µM,
CCOCCN(C(=O)COC)c1cccc(OC)c1,inactive,
Cc1ccc(NC(=O)Cn2ncc(Cl)c(Cl)c2=O)cc1S(=O)(=O)N1CCCCC1,"inconclusive: 20.6 µM [cytotoxic, single point]",
Cc1ccc(-n2c(-c3ccco3)nc3c(cnn3-c3ccccc3Cl)c2=O)cc1,inactive,

# Exported with tabs: entries from further up.
Structure (SMILES)	Potency	activity change, negative = cytotoxic
Cc1coc2c1C(=O)C(=O)c1c-2ccc2c(C)cccc12	active: 9.2 µM	
CCN1C(=O)/C(=C\c2cn(CCC#N)nc2-c2ccc(F)cc2)SC1=S	inactive	
COc1ccc2nc(Nc3nc(-c4cc5ccccc5oc4=O)cs3)sc2c1	inconclusive: 16.4 µM [cytotoxic, single point]	
CC1Cc2nc(SCC(=O)N3CCOCC3)n(-c3ccccc3)c(=O)c2S1 (centres undefined)	inactive	
Cc1cc2nc(-c3nnnn3C3CCCCC3)c(=O)[nH]c2cc1C	inactive	
Cn1nnnc1SCC(=O)c1ccc(Br)s1	inactive	
Nc1nc(=S)[nH]c2c1C1(CCCC1)Cc1ccccc1-2	inconclusive: 23.1 µM [cytotoxic, single point]	
O=C(Nc1ccc(Cl)cc1)C1CCC(=O)N1Cc1ccccc1Cl (centres undefined)	inactive	
Cc1cc(C(=O)NCC(C)(C)N2CCOCC2)c(C)o1	inactive	
COc1cc(OC)c(OC)cc1/C=C/c1ccc2ccccc2[n+]1C	active: 13 µM	
Cc1ccc(NC(=O)Cc2coc3ccc(C(C)C)cc23)cc1Cl	inconclusive: 29.1 µM [cytotoxic, single point]	
O=C(CN1c2cccc3cccc(c23)S1(=O)=O)Nc1ccccc1Br	inactive	
CC1CCN(c2ccc(NC(=O)Cn3c(=O)oc4ccccc43)cc2)CC1	inactive	
Cc1ccc(C(C(=O)NC2CCCCC2)N(Cc2cccnc2)C(=O)c2csnn2)cc1 (centres undefined)	inactive	
CCOC(=O)c1c(NC(=O)c2ccc(OC)cc2)sc2c1CCCCC2	inactive	
CCOC1CCCc2oc(-c3ccc(N(C)C)cc3)c(C(=O)OC)c21 (centres undefined)	inconclusive: 20.6 µM [cytotoxic, single point]	

# Structural class, those above with a cyano group (2)
Structure (SMILES),Potency,"activity change, negative = cytotoxic"
COc1cc(C2C(C#N)=C(N)Oc3cc(N)ccc32)cc(OC)c1OC (centres undefined),"inconclusive: 0.517 µM [cytotoxic, full curve, poor fit]",
CCN1C(=O)/C(=C\c2cn(CCC#N)nc2-c2ccc(F)cc2)SC1=S,inactive,

# The listing continues.

Structure (SMILES),Potency,"activity change, negative = cytotoxic"
COc1ccc(OC)c(NS(=O)(=O)c2ccc(-c3cc(C)no3)s2)c1,active: 4.61 µM,
NC(=O)C1CCN(C(=O)c2ccc3c(=O)n(Cc4ccco4)c(SCc4ccc([N+](=O)[O-])cc4)nc3c2)CC1,,inconclusive: -10.7%
CCCCCCCCCCCCCCCC[N+](C)(C)CCl,"inconclusive: 18.4 µM [cytotoxic, single point]",
C#CCOCCOCCOCCNc1nc(N2CCN(C(=O)CCCCCCCCCCNC(=O)Cn3cc(CCCCCN)nn3)CC2)nc(N2CCN(C(=O)CCCCCCCCCCNC(=O)[C@@H](CCSC)n3cc(CCO)nn3)CC2)n1,"inconclusive: 23.1 µM [cytotoxic, single point]",
CC1CCN(C(=O)COC(=O)c2ccc3c(c2)OCO3)CC1,inactive,
CCOc1ccc(C(=O)NC(=S)Nc2ccccc2N2CCC(C)CC2)cc1[N+](=O)[O-],"inconclusive: 16.4 µM [cytotoxic, single point]",
COc1ccccc1C(=O)NCCC(=O)N(Cc1ccco1)Cc1cccs1,,inconclusive: 1.94%
O=C(c1cccn(Cc2ccc(C(F)(F)F)cc2)c1=O)N1CCOCC1,inactive,
CCOC(=O)C1=C(CC)Nc2ccccc2N=C1NC(=O)CCN1C(=O)C2CCCCC2C1=O (centres undefined),"inconclusive: 0.651 µM [rising, full curve, poor fit]",
Cc1ccc(Nc2nc(N)c([N+](=O)[O-])c(NCCO)n2)cc1C,"inconclusive: 13 µM [cytotoxic, partial curve]",
O=C(Nc1cccc(C(F)(F)F)c1)C1CCCN1S(=O)(=O)c1cccc2nsnc12 (centres undefined),"inconclusive: 20.6 µM [cytotoxic, single point]",
CN=c1scc(C)n1/N=C/c1ccc2c(c1)OCO2,"inconclusive: 29.1 µM [cytotoxic, partial curve, poor fit]",
CN(C)CCC(=O)N1c2ccccc2Sc2ccc(C(F)(F)F)cc21,"inconclusive: 20.6 µM [cytotoxic, single point]",
Cc1cc(Nc2ccc(Cl)cc2)nc(NCc2ccccc2)n1,"inconclusive: 20.6 µM [cytotoxic, single point]",
CN(C)Cc1ccc(-c2nc3cccc4c3n2CCNC4=O)cc1,active: 18.4 µM,
CCCCN(C)C(=O)c1ccc(Nc2nc(C(N)CCc3ccccc3)cs2)nc1 (centres undefined),"inconclusive: 29.1 µM [cytotoxic, single point]",
CSc1ccc(C2NC(=O)c3ccccc3N2)cc1 (centres undefined),"inconclusive: 29.1 µM [cytotoxic, single point]",
COc1ccnc(NCc2cccc(C(F)(F)F)c2)c1C#N,inactive,
CC(C)(C(N)=O)N1CCN(c2ncc(C(F)(F)F)cc2Cl)CC1,"inconclusive: 25.9 µM [cytotoxic, partial curve, poor fit]",
CCOC(=O)c1c(C)oc2c1C(=O)c1ccccc1C2=O,"inconclusive: 29.1 µM [cytotoxic, single point]",
COc1cc2c(cc1NC(=S)Nc1cccc3ccccc13)oc1ccccc12,inactive,
CCC1CCc2c(sc(NC(=O)C3c4ccccc4Oc4ccccc43)c2C(N)=O)C1 (centres undefined),inactive,
COc1ccc(C(=O)COC(=O)C(Cc2c[nH]c3ccccc23)NC(=O)c2ccc(C(C)(C)C)cc2)cc1 (centres undefined),inactive,
COc1ccc(-c2oc3ccc(N4CCOCC4)cc3c2C#CCO)cc1,"inconclusive: 23.1 µM [cytotoxic, single point]",
